Laboratory results published in patent publication US5432260A, “High affinity mannose receptor ligands” (Washington University, priority 1991, dated 1995).

Protein sequences, listed by entry. Tags and fused reporters are not part of them. Residues count along the entry.
UniProt P22897, 19-1456 limits assumed: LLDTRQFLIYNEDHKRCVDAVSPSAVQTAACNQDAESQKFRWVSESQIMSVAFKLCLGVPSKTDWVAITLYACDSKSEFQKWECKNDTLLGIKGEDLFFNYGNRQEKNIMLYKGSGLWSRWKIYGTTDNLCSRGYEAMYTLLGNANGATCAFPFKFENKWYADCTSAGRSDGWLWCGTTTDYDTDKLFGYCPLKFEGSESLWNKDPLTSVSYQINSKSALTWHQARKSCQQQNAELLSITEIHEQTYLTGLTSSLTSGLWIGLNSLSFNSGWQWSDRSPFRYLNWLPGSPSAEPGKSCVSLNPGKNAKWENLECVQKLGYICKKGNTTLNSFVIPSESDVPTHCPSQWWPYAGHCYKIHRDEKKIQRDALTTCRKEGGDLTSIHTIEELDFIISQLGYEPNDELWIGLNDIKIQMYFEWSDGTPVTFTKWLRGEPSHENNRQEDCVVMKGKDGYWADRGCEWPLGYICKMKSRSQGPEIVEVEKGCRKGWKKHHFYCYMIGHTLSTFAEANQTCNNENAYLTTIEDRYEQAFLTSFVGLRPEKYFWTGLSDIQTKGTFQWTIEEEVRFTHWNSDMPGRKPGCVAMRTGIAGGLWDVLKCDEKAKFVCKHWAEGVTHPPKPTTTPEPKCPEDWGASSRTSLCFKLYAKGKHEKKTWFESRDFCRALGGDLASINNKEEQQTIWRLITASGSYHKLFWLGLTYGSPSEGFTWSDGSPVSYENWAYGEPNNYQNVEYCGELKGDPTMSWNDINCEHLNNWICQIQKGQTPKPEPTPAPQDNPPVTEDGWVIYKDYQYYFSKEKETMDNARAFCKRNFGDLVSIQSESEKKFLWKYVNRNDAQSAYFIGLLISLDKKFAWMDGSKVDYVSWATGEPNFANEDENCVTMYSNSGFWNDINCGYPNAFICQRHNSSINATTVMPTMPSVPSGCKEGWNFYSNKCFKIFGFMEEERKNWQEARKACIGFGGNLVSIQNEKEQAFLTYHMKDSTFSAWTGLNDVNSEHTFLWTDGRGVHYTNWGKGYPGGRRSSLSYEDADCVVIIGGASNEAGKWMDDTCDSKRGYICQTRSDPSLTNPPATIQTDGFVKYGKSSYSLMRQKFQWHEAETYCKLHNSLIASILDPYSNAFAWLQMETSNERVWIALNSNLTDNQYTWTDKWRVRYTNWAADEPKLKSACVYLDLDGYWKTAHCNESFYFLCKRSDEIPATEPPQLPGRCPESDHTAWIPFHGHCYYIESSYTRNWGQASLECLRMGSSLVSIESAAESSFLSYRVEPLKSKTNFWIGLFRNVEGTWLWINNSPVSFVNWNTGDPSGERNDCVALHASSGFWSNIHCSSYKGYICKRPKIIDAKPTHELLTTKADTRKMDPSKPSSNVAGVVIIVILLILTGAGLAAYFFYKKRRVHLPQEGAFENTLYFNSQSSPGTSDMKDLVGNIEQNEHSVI

Target: purified mannose receptor (Homo sapiens, UniProt P22897)
Assay: Competition of 125I-mannose-BSA binding to isolated mannose receptor on beads
Conditions: read-out: IC50 (concentration effecting 50% inhibition of 125I-mannose-BSA binding to mannose receptor); 125I-mannose-BSA 2 nM, 37° C., 15 minutes
Description: The assay measures the ability of the test compound to inhibit the binding of ^125 I-mannose-BSA, prepared as described, to isolated mannose receptor. To prepare solid supported receptor protein A-sepharose (IgG-SORB) is incubated with rabbit anti-human mannose receptor antiserum for 20 minutes at room temperature. The beads are then washed by sedimentation 3 times in Tris-buffered saline containing 1% Triton X-100, 1% BSA and 15 mM CaCl2 (assay buffer). The beads are then suspended in an assay buffer and purified mannose receptor (Lennartz, M. R. et al., J Biol Chem (1987) 262:9942-9944 (supra)) is added, followed by incubation for 30 minutes at 37° C. The beads are washed again three times to remove unbound receptor.
In the assay, the receptor-linked beads are resuspended in a total volume of 100 μL assay buffer containing 0.1 μCi ^125 I-mannose-BSA (2 nM) prepared according to (Stahl, P. et al., Cell (1980) (supra)) with and without test compound. […] The cpm of ^125 I-mannose-BSA remaining in the […] is determined, and the percent inhibition of test compound at various concentrations calculated. […] Nonspecific binding of ligand to beads is determined by adding excess yeast mannan to parallel assays and accounted for in the calculations. […]

OC[C@H]1O[C@H](O[C@H]2[C@H](O)[C@H](O)[C@@H](O[C@H]3[C@H](O)[C@H](O)[C@@H](O[C@H]4[C@H](O)[C@H](O)[C@@H](O[C@H]5[C@H](O)[C@H](O)[C@@H](O[C@H]6[C@H](O)[C@H](O)[C@@H](O[C@H]7[C@H](O)[C@H](O)[C@@H](O[C@H]8[C@H](O)[C@H](O)[C@@H](O[C@H]9[C@H](O)[C@H](O)[C@@H](O[C@H]%10[C@H](O)[C@H](O)[C@@H](O[C@H]%11[C@H](O)[C@H](O)[C@@H](O[C@H]%12[C@H](O)[C@H](O)[C@@H](O[C@H]%13[C@H](O)[C@H](O)C(O)O[C@@H]%13CO)O[C@@H]%12CO)O[C@@H]%11CO)O[C@@H]%10CO)O[C@@H]9CO)O[C@@H]8CO)O[C@@H]7CO)O[C@@H]6CO)O[C@@H]5CO)O[C@@H]4CO)O[C@@H]3CO)O[C@@H]2CO)[C@@H](O)[C@@H](O)[C@@H]1O (stereo partly shown)
IC50: 10 µM

Structures were worked out from names or drawings and are uncertain.
